Results on 27 compounds are retold here after the supplement of paper PMC10735217.

The subject of the assay is HEK293A TEAD-LUC reporter. Kind of assay: TEAD-luciferase reporter activity (YAP activation), robust Z score vs plate; higher = stronger YAP/TEAD activation. The note with it: 24 h. A general note: Reporter assays use an easily measured gene product as a stand-in for the process of interest.

Where a name gives a salt, the structure may show the parent alone. The list shows a part of the results. Repeats in this data set agree poorly, so a single value says little.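 Human kidney-derived cells stably carry a construct in which eight TEAD-binding elements drive luciferase, measured by luminescence in a drug-repurposing library screen. A hit is any compound whose signal exceeds the plate mean by more than five robust Z scores.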

Consider `O=C(O)c1ccc(Cc2ccccc2)cn1`, for which the TEAD-luciferase reporter activity (compound concentration: 200 nM) is inactive: -0.902, the TEAD-luciferase reporter activity (compound concentration: 2 uM) was inactive: -1.34 and the TEAD-luciferase reporter activity (compound concentration: 10 uM) was inactive: 2.03.
Take `CCCCCOc1ccc(C2SC(=O)NC2=O)cc1OCC` (centres undefined): the TEAD-luciferase reporter activity reads like this: (compound concentration: 200 nM) inactive: -0.0542; (compound concentration: 2 uM) inactive: -0.642; (compound concentration: 10 uM) inactive: -0.668.
As to `CCOc1ccc(-c2ccncc2)c(NC(=O)CC(C)N)c1` (centres undefined), the TEAD-luciferase reporter activity runs as follows: (compound concentration: 200 nM) inactive: 0.746; (compound concentration: 2 uM) inactive: -0.794; (compound concentration: 10 uM) inactive: 0.203.
Take `CCNC(=O)CCC/C=C\C[C@@H]1[C@@H](/C=C/[C@@H](O)CCc2ccccc2)[C@H](O)C[C@@H]1O` [bimatoprost sustained release, Allergan]: the TEAD-luciferase reporter activity (compound concentration: 200 nM) is inactive: -0.72 and the TEAD-luciferase reporter activity (compound concentration: 10 uM) is inactive: -1.14.
Take `CCNC(=O)CCC/C=C\C[C@@H]1[C@@H](/C=C/[C@@H](O)CCc2ccccc2)[C@H](O)C[C@@H]1O` [bimatoprost sustained release]: the TEAD-luciferase reporter activity (compound concentration: 2 uM) is inactive: -0.237.
Regarding `COc1ccccc1N1CCN(CCN(C(=O)C2CCCCC2)c2ccccc2[N+](=O)[O-])CC1`, the TEAD-luciferase reporter activity is inactive: -1.14 (compound concentration: 200 nM), inactive: -1.2 (compound concentration: 2 uM) and inactive: -0.447 (compound concentration: 10 uM).
The like results for `CC/C=C\C/C=C\C/C=C\C/C=C\C/C=C\C/C=C\CCC(=O)NCCNC(=O)c1ccccc1O` were, in that order, inactive: -2.24, inactive: -0.84 and inactive: -0.43.
Take `FC(F)(F)c1cc(NC(=S)Nc2ccc(Br)cc2-c2nnn[nH]2)cc(C(F)(F)F)c1`: the TEAD-luciferase reporter activity runs as follows: (compound concentration: 200 nM) inactive: -0.578; (compound concentration: 2 uM) inactive: -1.07; (compound concentration: 10 uM) inactive: -1.02.
As for `Cc1c(-c2ccc(-c3ccccc3F)cc2)nc2ccc(F)cc2c1C(=O)O` [Brequinar soldium salt hydrate], the TEAD-luciferase reporter activity reads like this: (compound concentration: 200 nM) inactive: 0.151; (compound concentration: 2 uM) inactive: -1.08; (compound concentration: 10 uM) inactive: 0.223.
For `COc1ccc2[nH]c(C(=O)c3ccccc3)cc2c1` the same measures were inactive: -0.0901, active: 10.7 and active: 5.16.
As for `Cc1cc2ncc(C(=O)NC3CCCCCC3)cn2n1`, the TEAD-luciferase reporter activity is inactive: -0.303 (compound concentration: 200 nM) and inactive: -0.165 (compound concentration: 10 uM).
For the compound `Cc1ccc(NS(=O)(=O)c2ccccc2)c(C(=O)O)c1`, the TEAD-luciferase reporter activity runs as follows: (compound concentration: 200 nM) inactive: -1.3; (compound concentration: 2 uM) inactive: 0.298; (compound concentration: 10 uM) inactive: 0.291.
In the case of `CCC12CCCN3CCc4c(n(c5ccccc45)C(O)C1)C32` (centres undefined) [Vincanol], the TEAD-luciferase reporter activity by setting is: (compound concentration: 200 nM) active: 6.93; (compound concentration: 2 uM) inactive: -0.575; (compound concentration: 10 uM) inactive: 1.04.
`Cn1cncc1[C@](N)(c1ccc(C#N)cc1)c1cc2cc(C#N)cc(-c3cccc(F)c3)c2o1`: the TEAD-luciferase reporter activity is inactive: -0.19 (compound concentration: 200 nM), inactive: -0.983 (compound concentration: 2 uM) and inactive: -1.16 (compound concentration: 10 uM).
`C[N+](C)(CCOc1ccccc1)Cc1cccs1` [Thenium Closylate]: the TEAD-luciferase reporter activity reads like this: (compound concentration: 200 nM) inactive: -1.37; (compound concentration: 2 uM) inactive: -0.409; (compound concentration: 10 uM) inactive: 0.948.
Consider `C=CC(=O)Nc1ccc2ncnc(Nc3ccc(OCc4cccc(F)c4)c(Cl)c3)c2c1` [allitinib], for which the TEAD-luciferase reporter activity runs as follows: (compound concentration: 200 nM) inactive: -1.74; (compound concentration: 2 uM) inactive: -1.78; (compound concentration: 10 uM) inactive: 0.938.
`CSCC(=O)O[C@]1(C(=O)CCl)CC[C@H]2[C@H]3CCC4=CC(=O)CC[C@@]4(C)[C@@H]3[C@@H](O)C[C@@]21C`: the TEAD-luciferase reporter activity runs as follows: (compound concentration: 200 nM) inactive: -0.279; (compound concentration: 2 uM) inactive: -1.35; (compound concentration: 10 uM) inactive: 1.2.
Consider `Nc1nc2c(s1)CCc1nc3ccccn3c1-2`, for which the TEAD-luciferase reporter activity was inactive: -1 (compound concentration: 200 nM), inactive: 0.319 (compound concentration: 2 uM) and inactive: 2.14 (compound concentration: 10 uM).
As for `CCn1nc(C2CCN(C(=O)CCO)CC2)nc1-c1cnc(N)c(-c2nnc(C(C)(C)C)o2)n1`, the TEAD-luciferase reporter activity by setting is: (compound concentration: 200 nM) inactive: -1.21; (compound concentration: 2 uM) inactive: -0.674; (compound concentration: 10 uM) inactive: -1.38.
`COc1ccc(/C(=C(\c2ccccc2)[N+](=O)[O-])c2ccc(OCCN3CCCC3)cc2)cc1`: the TEAD-luciferase reporter activity is inactive: -0.415 (compound concentration: 200 nM), inactive: 0.552 (compound concentration: 2 uM) and active: 7.87 (compound concentration: 10 uM).
For `CC(C)C[C@@H](C(=O)N[C@H](C(=O)OC1CCCC1)c1ccccc1)[C@H](O)C(=O)NO` [Tosedostat (CHR2797)], the TEAD-luciferase reporter activity reads like this: (compound concentration: 200 nM) inactive: -0.517; (compound concentration: 10 uM) inactive: -0.754.
On to `CC(C)C[C@@H](C(=O)N[C@H](C(=O)OC1CCCC1)c1ccccc1)[C@H](O)C(=O)NO` [tosedostat], for which the TEAD-luciferase reporter activity (compound concentration: 2 uM) was inactive: -0.156.
In the case of `COc1cc(N2CCC(N3CCN(C)CC3)CC2)ccc1Nc1ncnc(Nc2ccccc2S(=O)(=O)C(C)C)n1`, the TEAD-luciferase reporter activity reads like this: (compound concentration: 200 nM) inactive: -1.66; (compound concentration: 2 uM) inactive: -1.35; (compound concentration: 10 uM) inactive: -0.87.
In the case of `CN(C)CCOC(=O)C(c1ccccc1)C1(O)CCCC1` (centres undefined), the TEAD-luciferase reporter activity by setting is: (compound concentration: 200 nM) inactive: -1.08; (compound concentration: 2 uM) inactive: 0.711; (compound concentration: 10 uM) inactive: -0.803.
On to `O=C(O)c1cc(O)c2c(c1)C(C1c3cc(C(=O)O)cc(O)c3C(=O)c3c(OC4OC(CO)C(O)C(O)C4O)cccc31)c1cccc(OC3OC(CO)C(O)C(O)C3O)c1C2=O` (centres undefined), for which the TEAD-luciferase reporter activity was inactive: 3.99 (compound concentration: 200 nM), inactive: -0.863 (compound concentration: 2 uM) and inactive: -0.194 (compound concentration: 10 uM).
For the compound `CCCCCC(C)NCc1c(C)cc(C)cc1C` (centres undefined) [trimexiline], the TEAD-luciferase reporter activity is, setting by setting: (compound concentration: 200 nM) inactive: -0.329; (compound concentration: 2 uM) inactive: 0.892; (compound concentration: 10 uM) inactive: 1.82.
Take `CC(C)[C@H](NC(=O)OCc1ccc(Cl)cc1Cl)C(=O)NC(CC(=O)O)C(=O)CF` (some centres undefined): the TEAD-luciferase reporter activity is, setting by setting: (compound concentration: 200 nM) inactive: -1.59; (compound concentration: 2 uM) inactive: -0.6; (compound concentration: 10 uM) inactive: 4.91.
